Assay results published in US20070244056A1 (priority 2004, published 2007).

Experiments:
[1] = system: human patients afflicted with an unspecified form of multiple sclerosis; conditions: administered alone; data of WO 00/74676; cited from earlier work
[2] = system: MPTP-induced dopaminergic neurotoxicity (nigrostriatal dopaminergic neurons); conditions: given before MPTP (25 mg/kg i.p., 4 injections); GA 100 μg/mouse s.c. 7 days before, riluzole 10 mg/kg by gavage 30 minutes before each MPTP injection; 7 days after first MPTP
[3] = system: retinal ganglion cell (RGC) death induced by glutamate; conditions: given prior to glutamate (0.2 M) injection; RGCs counted 7 days after glutamate injection

Q: With `Nc1nc2ccc(OC(F)(F)F)cc2s1` [riluzole, 2-amino-6-trifluoromethoxy benzothiazole] as the molecule, how does the “increase in T2 lesion load in the brain” value [1] read?
A: did not alter much under treatment

Q: And the striatal dopamine levels [2]?
A: increases the striatal dopamine levels

Q: And the “number of surviving RGCs” value [3]?
A: raises the number of surviving RGCs above that of the control group
